Data as given in publication PMC9799976.

Chains of the proteins cited; added tags and fusions are not shown.
UniProt Q9D898: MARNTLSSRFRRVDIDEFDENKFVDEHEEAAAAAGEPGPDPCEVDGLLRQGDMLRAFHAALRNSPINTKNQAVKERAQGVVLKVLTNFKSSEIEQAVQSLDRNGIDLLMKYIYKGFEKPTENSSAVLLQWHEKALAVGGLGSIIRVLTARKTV
UniProt Q7TPR4: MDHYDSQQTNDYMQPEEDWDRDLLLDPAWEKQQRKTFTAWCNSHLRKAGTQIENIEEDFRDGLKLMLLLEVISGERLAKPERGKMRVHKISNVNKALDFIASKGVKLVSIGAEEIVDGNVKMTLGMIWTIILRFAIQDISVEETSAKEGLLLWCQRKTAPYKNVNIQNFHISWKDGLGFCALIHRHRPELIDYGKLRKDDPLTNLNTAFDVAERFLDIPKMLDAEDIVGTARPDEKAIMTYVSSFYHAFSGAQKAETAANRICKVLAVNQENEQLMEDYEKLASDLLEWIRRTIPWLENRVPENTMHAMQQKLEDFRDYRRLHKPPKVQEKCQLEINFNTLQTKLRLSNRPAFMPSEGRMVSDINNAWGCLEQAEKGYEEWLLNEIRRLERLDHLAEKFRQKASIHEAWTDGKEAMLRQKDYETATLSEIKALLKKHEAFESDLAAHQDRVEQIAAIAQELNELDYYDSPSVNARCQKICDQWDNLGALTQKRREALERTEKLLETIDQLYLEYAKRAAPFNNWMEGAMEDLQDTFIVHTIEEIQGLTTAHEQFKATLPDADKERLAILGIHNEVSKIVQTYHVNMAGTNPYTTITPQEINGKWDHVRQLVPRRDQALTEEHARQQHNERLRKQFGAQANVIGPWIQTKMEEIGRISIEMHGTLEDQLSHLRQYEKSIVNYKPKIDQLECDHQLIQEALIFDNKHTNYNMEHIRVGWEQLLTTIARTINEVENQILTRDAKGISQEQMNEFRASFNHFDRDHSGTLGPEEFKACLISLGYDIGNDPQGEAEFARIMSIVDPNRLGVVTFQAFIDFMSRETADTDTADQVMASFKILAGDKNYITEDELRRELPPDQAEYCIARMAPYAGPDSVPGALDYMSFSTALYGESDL
UniProt P57780: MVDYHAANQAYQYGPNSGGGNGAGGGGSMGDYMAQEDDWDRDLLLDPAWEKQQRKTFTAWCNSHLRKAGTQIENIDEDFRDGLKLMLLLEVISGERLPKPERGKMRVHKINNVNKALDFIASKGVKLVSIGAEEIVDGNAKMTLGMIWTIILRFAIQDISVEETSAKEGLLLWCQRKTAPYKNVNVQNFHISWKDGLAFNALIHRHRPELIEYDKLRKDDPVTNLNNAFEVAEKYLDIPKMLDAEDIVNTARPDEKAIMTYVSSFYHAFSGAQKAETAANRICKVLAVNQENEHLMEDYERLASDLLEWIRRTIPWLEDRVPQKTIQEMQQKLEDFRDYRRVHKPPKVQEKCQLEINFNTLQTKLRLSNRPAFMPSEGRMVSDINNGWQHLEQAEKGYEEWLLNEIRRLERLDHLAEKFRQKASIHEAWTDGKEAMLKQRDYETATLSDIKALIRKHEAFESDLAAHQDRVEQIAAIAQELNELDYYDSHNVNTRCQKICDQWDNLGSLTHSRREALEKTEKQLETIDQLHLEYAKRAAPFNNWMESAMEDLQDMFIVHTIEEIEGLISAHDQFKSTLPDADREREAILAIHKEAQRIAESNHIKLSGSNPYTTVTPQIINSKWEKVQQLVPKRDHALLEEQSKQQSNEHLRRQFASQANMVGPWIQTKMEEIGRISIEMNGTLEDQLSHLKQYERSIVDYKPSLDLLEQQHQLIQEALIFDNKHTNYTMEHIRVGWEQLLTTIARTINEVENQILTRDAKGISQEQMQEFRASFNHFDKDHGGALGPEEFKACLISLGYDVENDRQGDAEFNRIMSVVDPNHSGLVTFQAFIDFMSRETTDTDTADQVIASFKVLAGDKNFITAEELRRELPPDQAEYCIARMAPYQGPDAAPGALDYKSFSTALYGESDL
UniProt Q8K341: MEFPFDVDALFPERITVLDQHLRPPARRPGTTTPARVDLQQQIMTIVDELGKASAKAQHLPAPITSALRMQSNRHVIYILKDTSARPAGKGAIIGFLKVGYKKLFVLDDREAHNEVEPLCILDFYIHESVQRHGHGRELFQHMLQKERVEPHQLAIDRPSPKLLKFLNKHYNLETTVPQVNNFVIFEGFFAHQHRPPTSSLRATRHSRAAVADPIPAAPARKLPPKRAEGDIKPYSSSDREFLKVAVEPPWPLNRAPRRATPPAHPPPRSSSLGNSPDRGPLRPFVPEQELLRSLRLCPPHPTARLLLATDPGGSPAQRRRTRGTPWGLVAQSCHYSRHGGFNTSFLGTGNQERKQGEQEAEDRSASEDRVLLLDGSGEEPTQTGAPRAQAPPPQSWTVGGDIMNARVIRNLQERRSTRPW
UniProt Q02248: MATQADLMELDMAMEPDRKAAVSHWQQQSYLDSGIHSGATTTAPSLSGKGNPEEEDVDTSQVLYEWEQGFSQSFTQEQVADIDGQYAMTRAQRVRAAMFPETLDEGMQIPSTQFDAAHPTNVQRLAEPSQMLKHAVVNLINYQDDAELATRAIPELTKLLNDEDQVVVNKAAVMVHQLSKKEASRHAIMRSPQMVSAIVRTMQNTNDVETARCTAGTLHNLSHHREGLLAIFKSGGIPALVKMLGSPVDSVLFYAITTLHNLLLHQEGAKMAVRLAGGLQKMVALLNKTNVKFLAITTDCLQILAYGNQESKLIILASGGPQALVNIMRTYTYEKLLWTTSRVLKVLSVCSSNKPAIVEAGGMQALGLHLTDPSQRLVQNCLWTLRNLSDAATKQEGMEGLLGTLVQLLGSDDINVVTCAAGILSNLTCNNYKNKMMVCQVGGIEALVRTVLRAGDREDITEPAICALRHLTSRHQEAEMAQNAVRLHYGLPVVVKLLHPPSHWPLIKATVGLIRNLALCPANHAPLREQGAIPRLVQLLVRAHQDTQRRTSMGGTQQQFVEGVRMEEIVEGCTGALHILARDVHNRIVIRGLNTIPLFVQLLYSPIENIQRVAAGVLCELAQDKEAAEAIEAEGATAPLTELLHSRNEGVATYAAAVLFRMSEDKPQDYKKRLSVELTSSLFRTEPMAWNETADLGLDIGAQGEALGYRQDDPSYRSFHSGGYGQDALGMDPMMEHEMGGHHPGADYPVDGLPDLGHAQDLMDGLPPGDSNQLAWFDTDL
UniProt O88487: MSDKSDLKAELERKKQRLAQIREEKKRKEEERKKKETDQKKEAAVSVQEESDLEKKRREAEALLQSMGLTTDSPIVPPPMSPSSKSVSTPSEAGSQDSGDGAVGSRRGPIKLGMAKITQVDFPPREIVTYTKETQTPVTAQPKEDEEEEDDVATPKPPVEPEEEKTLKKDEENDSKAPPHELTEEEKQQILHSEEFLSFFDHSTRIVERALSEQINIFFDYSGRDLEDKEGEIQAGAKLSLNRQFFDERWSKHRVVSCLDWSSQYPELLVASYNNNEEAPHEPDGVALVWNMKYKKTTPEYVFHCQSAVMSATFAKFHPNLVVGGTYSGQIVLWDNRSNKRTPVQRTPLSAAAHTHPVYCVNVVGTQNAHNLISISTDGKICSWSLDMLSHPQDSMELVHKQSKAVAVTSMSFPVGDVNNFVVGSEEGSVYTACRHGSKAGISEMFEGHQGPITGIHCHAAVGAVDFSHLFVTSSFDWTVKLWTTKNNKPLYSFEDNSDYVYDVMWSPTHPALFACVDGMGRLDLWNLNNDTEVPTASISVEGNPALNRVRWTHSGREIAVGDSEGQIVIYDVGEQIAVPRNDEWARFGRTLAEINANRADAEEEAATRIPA
UniProt Q99KJ8: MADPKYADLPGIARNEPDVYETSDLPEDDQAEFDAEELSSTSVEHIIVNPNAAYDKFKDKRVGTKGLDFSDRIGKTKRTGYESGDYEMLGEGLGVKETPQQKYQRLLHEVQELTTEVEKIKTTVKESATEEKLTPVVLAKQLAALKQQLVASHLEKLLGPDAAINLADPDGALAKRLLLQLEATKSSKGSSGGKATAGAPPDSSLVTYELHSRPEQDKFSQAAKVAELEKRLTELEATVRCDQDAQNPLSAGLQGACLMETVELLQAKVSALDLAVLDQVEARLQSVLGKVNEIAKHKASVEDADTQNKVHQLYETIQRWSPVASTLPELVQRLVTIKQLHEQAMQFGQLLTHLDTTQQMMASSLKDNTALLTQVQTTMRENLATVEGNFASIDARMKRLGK
UniProt Q9QZB9: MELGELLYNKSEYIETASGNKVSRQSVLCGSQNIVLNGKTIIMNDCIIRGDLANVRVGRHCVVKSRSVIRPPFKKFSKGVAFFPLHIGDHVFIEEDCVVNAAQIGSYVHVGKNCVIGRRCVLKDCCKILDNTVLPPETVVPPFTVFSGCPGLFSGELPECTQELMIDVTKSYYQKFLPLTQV
UniProt Q6R891: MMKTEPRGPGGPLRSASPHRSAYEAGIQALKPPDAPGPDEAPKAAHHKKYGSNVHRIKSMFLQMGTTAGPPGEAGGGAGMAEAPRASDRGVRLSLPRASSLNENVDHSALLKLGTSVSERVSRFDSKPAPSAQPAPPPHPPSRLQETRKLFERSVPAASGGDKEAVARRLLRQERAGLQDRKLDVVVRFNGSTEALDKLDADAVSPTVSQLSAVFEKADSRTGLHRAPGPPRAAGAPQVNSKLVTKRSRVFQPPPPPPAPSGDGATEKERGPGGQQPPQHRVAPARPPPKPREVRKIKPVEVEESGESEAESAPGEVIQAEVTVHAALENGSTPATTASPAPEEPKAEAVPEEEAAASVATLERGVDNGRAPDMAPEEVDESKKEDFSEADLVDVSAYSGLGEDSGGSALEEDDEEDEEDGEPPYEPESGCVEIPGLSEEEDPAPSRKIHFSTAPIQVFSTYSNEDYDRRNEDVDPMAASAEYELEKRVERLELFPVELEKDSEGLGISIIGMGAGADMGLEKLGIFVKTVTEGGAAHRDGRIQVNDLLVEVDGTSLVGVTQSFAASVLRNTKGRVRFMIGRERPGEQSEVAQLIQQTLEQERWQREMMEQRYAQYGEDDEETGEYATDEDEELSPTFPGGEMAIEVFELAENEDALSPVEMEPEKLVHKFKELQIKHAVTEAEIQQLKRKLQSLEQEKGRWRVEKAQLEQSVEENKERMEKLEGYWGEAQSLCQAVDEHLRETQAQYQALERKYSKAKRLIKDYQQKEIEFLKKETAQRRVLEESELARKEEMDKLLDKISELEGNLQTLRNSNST
UniProt P05213: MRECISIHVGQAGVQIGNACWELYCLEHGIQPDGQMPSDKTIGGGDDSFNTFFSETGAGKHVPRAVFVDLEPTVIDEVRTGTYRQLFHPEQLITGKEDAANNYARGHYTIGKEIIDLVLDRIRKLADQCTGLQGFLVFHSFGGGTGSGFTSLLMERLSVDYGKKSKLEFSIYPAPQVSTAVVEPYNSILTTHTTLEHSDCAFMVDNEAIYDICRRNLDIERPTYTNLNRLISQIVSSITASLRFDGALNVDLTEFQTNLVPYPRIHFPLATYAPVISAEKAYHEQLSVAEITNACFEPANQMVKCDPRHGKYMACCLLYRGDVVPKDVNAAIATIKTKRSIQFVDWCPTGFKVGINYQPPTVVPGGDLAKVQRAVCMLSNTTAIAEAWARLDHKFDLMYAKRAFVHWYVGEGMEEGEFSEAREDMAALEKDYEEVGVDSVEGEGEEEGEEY
UniProt Q9D6F9: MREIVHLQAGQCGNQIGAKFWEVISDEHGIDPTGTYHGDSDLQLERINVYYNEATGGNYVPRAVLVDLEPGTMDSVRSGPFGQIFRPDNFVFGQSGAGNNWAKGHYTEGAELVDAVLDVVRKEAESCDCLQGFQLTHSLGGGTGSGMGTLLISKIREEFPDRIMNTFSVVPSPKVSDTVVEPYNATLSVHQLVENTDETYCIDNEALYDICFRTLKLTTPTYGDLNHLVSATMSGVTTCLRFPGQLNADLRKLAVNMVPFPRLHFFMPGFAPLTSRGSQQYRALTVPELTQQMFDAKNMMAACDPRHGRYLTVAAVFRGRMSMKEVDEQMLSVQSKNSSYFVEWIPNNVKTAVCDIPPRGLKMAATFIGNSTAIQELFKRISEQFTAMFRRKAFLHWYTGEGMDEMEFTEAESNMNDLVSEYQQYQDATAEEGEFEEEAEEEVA
UniProt Q922F4: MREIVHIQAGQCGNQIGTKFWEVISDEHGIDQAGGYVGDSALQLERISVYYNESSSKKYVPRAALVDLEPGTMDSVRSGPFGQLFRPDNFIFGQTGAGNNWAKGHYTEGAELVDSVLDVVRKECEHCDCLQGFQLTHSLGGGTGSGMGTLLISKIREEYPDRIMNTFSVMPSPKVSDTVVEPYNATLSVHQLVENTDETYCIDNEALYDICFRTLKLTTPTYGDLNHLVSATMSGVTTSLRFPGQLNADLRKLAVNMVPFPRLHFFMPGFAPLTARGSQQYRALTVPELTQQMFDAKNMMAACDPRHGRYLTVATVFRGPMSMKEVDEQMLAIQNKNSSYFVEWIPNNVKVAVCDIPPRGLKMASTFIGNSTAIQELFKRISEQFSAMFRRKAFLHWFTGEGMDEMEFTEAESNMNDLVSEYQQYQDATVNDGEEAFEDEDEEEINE

Biological target: T1, HA-tagged doublecortin (HA-DCX), bait of the pull-down (UniProt O43602)
T1 sequence: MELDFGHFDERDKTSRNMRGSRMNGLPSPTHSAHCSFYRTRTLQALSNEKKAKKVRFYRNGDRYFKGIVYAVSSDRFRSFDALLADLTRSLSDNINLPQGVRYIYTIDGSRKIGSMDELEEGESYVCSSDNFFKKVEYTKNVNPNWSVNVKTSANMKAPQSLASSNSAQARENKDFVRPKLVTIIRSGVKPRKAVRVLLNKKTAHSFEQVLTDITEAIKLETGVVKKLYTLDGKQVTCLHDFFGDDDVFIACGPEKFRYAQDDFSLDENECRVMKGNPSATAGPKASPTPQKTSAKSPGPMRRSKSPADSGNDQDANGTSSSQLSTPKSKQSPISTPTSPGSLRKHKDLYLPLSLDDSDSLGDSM
Experiment: affinity purification with mass spectrometry; HA-tagged DCX immobilised on anti-HA agarose beads, mixed with protein lysates from E18 mouse brains, 16 hr at 4°C, washed four times; HA as negative control; only the target purified

binding, binds:
Actin-related protein 2/3 complex subunit 5-like protein (from UniProt Q9D898 1-153), Alpha-actinin-1 (from UniProt Q7TPR4 1-892), Alpha-actinin-4 (from UniProt P57780 1-912), Alpha-tubulin N-acetyltransferase 1 (from UniProt Q8K341 1-421), Catenin beta-1 (from UniProt Q02248 1-781), Cytoplasmic dynein 1 intermediate chain 2 (from UniProt O88487 1-612), Dynactin subunit 2 (from UniProt Q99KJ8 1-402), Dynactin subunit 5 (from UniProt Q9QZB9 1-182), Neurabin-2 (from UniProt Q6R891 1-817), Tubulin alpha-1B chain; tubulin alpha-4A chain (from UniProt P05213 1-451), Tubulin beta-4A chain (from UniProt Q9D6F9 1-444), Tubulin beta-6 chain (from UniProt Q922F4 1-447)

Results are given in words; binding and its absence hold for the method and conditions named. In cells and extracts the contact can be indirect. A yes stands for co-enrichment or nearness to the bait. Other partners may have been found. Where a sequence is shown, tags or fusion partners need not be part of it.
